From PubChem BioAssay AID493014 (National Center for Advancing Translational Sciences (NCATS), 2011) come the findings set out here.

The list shows a part of the results. These are further read-outs of the screen, such as a control signal, another cell line or another target. No call is given for them. Compounds called inactive in the main read-out are mostly missing here. Potencies come from curve fits of mixed quality, noted in brackets.

The assay in a line: qHTS Assay to Find Inhibitors of Chronic Active B-Cell Receptor Signaling. As to conditions: ABC-DLBCL IkBa-CBG/CBR reporter, luminescence ratio (green luciferase fused to IkBa over red control in TMD8 lymphoma cells), 4 h. In short, it runs like this: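 Concentration-response series (up to 46 uM) were applied to TMD8 dual-reporter cells for 4 h at 37C with doxycycline. Green/red ratio, after filter-overlap correction, defined %Activity; red signal alone was normalised to basal cells and zero luminescence.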
For orientation: Quantitative high-throughput screening tests each substance at several concentrations.

The mark [1] stands for this setting: measured here: CBR red luminescence, cell number.
Setting [2] is: measured here: IkBa-CBG green luminescence.

What is called AC50 is the concentration at which the activity in the assay is half-maximal. Turning to `Cc1cc(N(CCO)CCO)ccc1N=Nc1cc(F)ccc1F`, under setting [1], the concentration at half-maximal activity (AC50) is 10 µM [rising, partial curve, poor fit].

On to `CCCCCCCc1ccc(-c2ccc(O)cc2)nc1`, for which the AC50 under setting [1] was 17.8 µM [rising, single point].

With `CNC(=S)N1CCN(c2ccc([N+](=O)[O-])cc2)CC1`, the half-maximal activity concentration (AC50) under setting [1] is 10 µM [rising, partial curve, poor fit].

As to `Cc1ccc(Cl)cc1NC1=C/C(=N\S(=O)(=O)c2cccs2)c2ccccc2C1=O`, the half-maximal activity concentration (AC50) under setting [1] is 4.11 µM [falling, full curve].

Consider `Cc1cc2c(C)cc(=O)[nH]c2cc1NC(=O)CCl`, for which the AC50 under setting [1] was 3.16 µM [rising, single point].

For the compound `CCOC(=O)C1=C(CP(=O)(c2ccccc2)c2ccccc2)NC(=O)NC1c1ccc(Cl)cc1` (stereo unspecified), under setting [1], the AC50 is 9.2 µM [falling, partial curve].

Turning to `COc1ccccc1NC(=O)CSc1nc2sc3c(c2c(=O)n1-c1ccccc1)CCN(C)C3`, under setting [1], the half-maximal activity concentration (AC50) was 5.62 µM [falling, full curve].

Turning to `COc1cccc(C(=O)Nc2nc3c(s2)CN(C)CC3)c1`, under setting [1], the AC50 is 3.16 µM [falling, partial curve, poor fit].

Turning to `COc1ccc(CNC(=O)C(=O)NCC(c2ccco2)S(=O)(=O)c2ccc(Cl)cc2)cc1` (stereo unspecified), the concentration at half-maximal activity (AC50) under setting [1] is 3.98 µM [rising, full curve, poor fit].

As for `O=C(O)C1CC=CCC1C(=O)N1CC=C(c2ccccc2)CC1` (stereo unspecified), the half-maximal activity concentration (AC50) under setting [1] was 22.4 µM [falling, single point].

Turning to `Cc1occc1C(=O)Nc1cc(S(=O)(=O)N2CCOCC2)ccc1OC(C)C`, the half-maximal activity concentration (AC50) under setting [1] was 20.6 µM [rising, partial curve] and the AC50 under setting [2] is 20.6 µM [falling, partial curve, poor fit].

As to `CSc1nc2c(cc1C#N)CCCCC2`, the concentration at half-maximal activity (AC50) under setting [1] was 32.6 µM [rising, partial curve, poor fit].

In the case of `O=C(Cc1n[nH]c(=O)[nH]c1=O)N/N=C/CCc1ccccc1`, under setting [1], the AC50 is 1.41 µM [falling, partial curve, poor fit].

As for `CSc1nncc(-c2ccc(F)c(F)c2)n1`, the AC50 under setting [1] was 1 µM [falling, partial curve, poor fit].

Consider `O=C(CCSc1ccccc1)NCCSCc1ccccc1`, for which, under setting [2], the AC50 is 20.6 µM [rising, partial curve, poor fit].

With `Cc1ccccc1N1CCN(C2=NC(=O)/C(=C\c3cccs3)S2)CC1`, the AC50 by setting is: under setting [1], 1.64 µM [falling, full curve]; under setting [2], 20.6 µM [falling, partial curve, poor fit].

With `Cc1cccc(C)c1NC(=O)CN(C)C(=O)c1ccc(-c2cccc(C(F)(F)F)c2)o1`, the AC50 under setting [1] was 3.26 µM [rising, single point].

Regarding `CCOC(=O)N1CCC(NC(=O)c2ccc3c(c2)sc2nc(-c4cccc(OC)c4)cn23)CC1`, the half-maximal activity concentration (AC50) is, setting by setting: under setting [1], 2.91 µM [falling, full curve, poor fit]; under setting [2], 2.59 µM [rising, full curve].

`CCCn1c(=O)c(Br)cn(-c2ccccc2C)c1=O`: the AC50 under setting [1] was 6.31 µM [rising, partial curve, poor fit].

Consider `Cc1ccc(-c2csc(NC(=O)c3ccc(S(=O)(=O)N4CCc5ccccc54)cc3)n2)cc1`, for which, under setting [1], the AC50 was 20.6 µM [falling, single point].

`CCc1ccc(-n2nnnc2SCC(=O)Nc2ccc(NC(C)=O)cc2)cc1`: the AC50 was 2.24 µM [rising, partial curve] under setting [1] and 11.2 µM [falling, partial curve, poor fit] under setting [2].

Take `CC1(C)Oc2ccc(NC(=O)c3ccco3)cc2O1`: the AC50 under setting [1] was 22.4 µM [rising, single point].

On to `CN(C)C=Nc1ncc2c3ccccc3n(CCN(C)C)c2c1C#N`, for which the AC50 under setting [1] was 17.8 µM [falling, single point].

Regarding `Cc1ccc2nc(Cl)c(/C=N/Nc3nc(C)cc(C)n3)c(=O)n2c1`, under setting [1], the AC50 was 13 µM [falling, partial curve, poor fit].

In the case of `Cc1ccc(NC(=O)c2ccco2)c(NC(=O)c2ccccc2C)c1`, the concentration at half-maximal activity (AC50) under setting [1] was 11.2 µM [rising, partial curve].

As to `Cc1ccc(/C=C/c2nc3ccccc3s2)s1`, the half-maximal activity concentration (AC50) under setting [1] was 25.9 µM [falling, partial curve].

As to `COc1cc(C2Nc3ccc4ncccc4c3C3=C2C(=O)CCC3)cc(OC)c1O` (stereo unspecified), the half-maximal activity concentration (AC50) under setting [2] was 20.6 µM [falling, single point].

With `C/C(CC(=O)Nc1ccc2c(c1)OCCO2)=N\NC(=O)C(=O)Nc1ccccc1C`, under setting [1], the concentration at half-maximal activity (AC50) was 14.1 µM [falling, single point].

As for `COc1ccc(N=Nc2cc(C)ccc2O)cc1`, the concentration at half-maximal activity (AC50) under setting [1] was 3.55 µM [rising, full curve, poor fit].

As for `CC(C)(C)NC(=O)c1ccc(Sc2ccccc2)c([N+](=O)[O-])c1`, the half-maximal activity concentration (AC50) under setting [1] is 8.2 µM [rising, partial curve].

In the case of `CC(C)(C)NC(=O)C(c1ccc(F)cc1)N(Cc1ccccc1Cl)C(=O)c1ccn[nH]1` (stereo unspecified), under setting [1], the AC50 was 14.1 µM [falling, partial curve].

`CC1(C)Cc2ccccc2C(CSc2ccccc2C(=O)O)=N1`: the AC50 under setting [1] was 11.2 µM [rising, partial curve, poor fit].

With `NNC(=O)c1cccc(O)c1`, the AC50 under setting [1] was 8.2 µM [falling, partial curve].

For the compound `COc1ccccc1N(CC(=O)NC1CC2CCC1C2)S(=O)(=O)c1ccc(C)cc1` (stereo unspecified), the AC50 under setting [1] is 20 µM [falling, single point].

`CC1=Nc2cc(C(=O)O)ccc2Sc2c(C)ccc(C)c21`: the AC50 under setting [1] is 25.1 µM [falling, single point].

In the case of `C/C(CC(=O)N1CCN(C=O)CC1)=N\NC(=O)c1ccc(Cl)cc1`, the AC50 under setting [1] is 25.1 µM [falling, single point].

Regarding `C#CCOCCOCCOCCNc1nc(N2CCN(C(=O)CCCCCCCCCCNC(=O)[C@H]([C@@H](C)CC)n3cc(CCCCCN)nn3)CC2)nc(N2CCN(C(=O)CCCCCCCCCCNC(=O)[C@H]([C@@H](C)CC)n3cc(CCCCN=C(N)N)nn3)CC2)n1`, the concentration at half-maximal activity (AC50) under setting [1] is 29.1 µM [rising, single point].

Regarding `CCOC(=O)/C(C(C)=O)=C1/OC(=O)c2ccccc21`, the AC50 under setting [1] was 6.51 µM [falling, single point].

In the case of `CC(=O)NC(=S)Nc1ccc(-c2nc3ccc(C)cc3s2)cc1`, the AC50 under setting [1] is 0.501 µM [rising, full curve, poor fit].

On to `CCC(=NNC(=O)c1ccc2c(c1)nc(C)n2CC)c1cc(F)ccc1O`, for which, under setting [1], the half-maximal activity concentration (AC50) was 0.0517 µM [rising, full curve, poor fit].

On to `O=C(NCC1CC1)c1cccc2c1C(=O)c1ccc(N3CCCC3)cc1S2(=O)=O`, for which the AC50 under setting [1] is 0.58 µM [rising, partial curve, poor fit].

On to `O=C(N/N=C/c1ccc(OC2CSC2)cc1)c1ccccc1`, for which the concentration at half-maximal activity (AC50) under setting [1] is 2.51 µM [falling, partial curve].

Take `CC(C)OC(=O)CSc1nnc(SCc2cccc3ccccc23)s1`: under setting [1], the concentration at half-maximal activity (AC50) was 18.4 µM [falling, partial curve, poor fit].

With `Cc1ccc(-n2[nH]c(C)c(/C=N/c3ccccn3)c2=O)cc1`, the AC50 under setting [1] was 14.1 µM [falling, single point].

Turning to `O=C(CC(Cc1ccccc1)C(=O)O)Nc1ccc(Cl)c(Cl)c1` (stereo unspecified), under setting [1], the AC50 is 35.5 µM [rising, single point].

With `O=C(Cc1c[nH]c2ccccc12)NCc1cccs1`, the AC50 under setting [1] is 25.9 µM [falling, single point].

Consider `COc1ccc(C2C(C(N)=O)=C(C)Nc3nc(-c4ccccc4OC)nn32)cc1OC` (stereo unspecified), for which, under setting [1], the AC50 was 11.2 µM [falling, partial curve].

For the compound `COC(=O)c1ccccc1NC(=O)c1ccccc1N(C)S(C)(=O)=O`, under setting [1], the AC50 is 6.51 µM [rising, single point].

Regarding `COc1ccc(/C=C2/C(=O)N(c3nc4ccccc4s3)N=C2CSc2ccc(Cl)cc2)cc1`, under setting [1], the concentration at half-maximal activity (AC50) was 25.9 µM [rising, single point].

Regarding `COC(=O)c1c(-c2ccc(C)cc2)csc1NC(=O)Cc1ccc(OC)c(OC)c1`, under setting [1], the AC50 was 25.9 µM [falling, partial curve, poor fit].

As for `Cn1cccc/c1=N\c1cccc[n+]1C`, under setting [1], the AC50 was 35.5 µM [falling, single point].

Regarding `CN1CCN(C(=O)CCCN2C(=O)/C(=C/c3ccc(Cl)cc3)SC2=S)CC1`, the half-maximal activity concentration (AC50) under setting [1] is 8.2 µM [falling, partial curve].

Turning to `CCN1CCc2c(OCc3ccccc3)cccc2C1=O`, the half-maximal activity concentration (AC50) under setting [1] was 0.2 µM [falling, full curve, poor fit].

With `Cc1ccc(/C=C(\C#N)C(=O)NC(C)C)o1`, the AC50 under setting [1] was 15.8 µM [rising, partial curve, poor fit].

Consider `CCC(/C=C1\Sc2ccc(OC)cc2N1CC)=C\c1sc2ccc(OC)cc2[n+]1CCCS(=O)(=O)[O-]`, for which the AC50 under setting [1] was 0.501 µM [rising, full curve, poor fit] and the concentration at half-maximal activity (AC50) under setting [2] is 11.2 µM [rising, partial curve, poor fit].

As to `COc1ccc(/C=C2\SC(=O)N(CCC(=O)NC3CCS(=O)(=O)C3)C2=O)cc1` (stereo unspecified), under setting [1], the AC50 was 0.631 µM [falling, full curve, poor fit].

On to `O=C1[C@@H]2Cc3c([nH]c4ccccc34)C(c3cccc(Br)c3)N2C(=O)CN1C1CCN(Cc2ccccc2)CC1` (stereo partly specified), for which the half-maximal activity concentration (AC50) under setting [1] was 2.82 µM [falling, full curve, poor fit].

Regarding `COc1ccc(N2Cc3cccc(C(=O)O)c3C2=O)cc1`, under setting [1], the concentration at half-maximal activity (AC50) was 1.84 µM [rising, partial curve, poor fit].

Consider `CC(=O)c1cccc(NC(=O)C2CCN(C(=O)c3cccs3)CC2)c1`, for which the concentration at half-maximal activity (AC50) under setting [1] is 11.2 µM [rising, single point].

For `Cc1ccc2nc(-c3cccc(Br)c3)cc(C(=O)NCC3CCCO3)c2c1` (stereo unspecified), the AC50 under setting [1] is 15.8 µM [rising, single point].

As for `C[C@H]1C(=O)N(c2ccccc2)[C@@H]1c1ccccc1`, the AC50 under setting [1] is 0.231 µM [rising, full curve, poor fit].
